Results on 1 sequence are retold here after doi:10.1101/388728.

The test system of this data set is AmtR (Mycobacterium smegmatis). Briefly: pull-down.

For at least one entry, the source does not settle the construct or the ends of the probe. Negatives hold for the conditions tested.

As for ACGACAUUAUAUGGUCGGA [RNA oligo 1], the binding result is “no binding”.
